Values of other authors, collected in patent publication US7541467B2, “Fluorescent zinc ion sensor” (Sekisui Medical Co., Ltd., priority 2004, dated 2009).
At least one structure is not confirmed: it was looked up by name or label, or the drawing left a doubt.

Details: cited from earlier work

## O=C(O)CN(CCOCCOCCN(CC(=O)O)CC(=O)O)CC(=O)O [EGTA, ethylene glycol-bis(2-aminomethyl)-N,N,N′,N′-tetraacetic acid]
  KZn: ≤ 10^9 M
